From paper doi:10.1101/2024.08.29.607757 (bioRxiv, 2024)
No constants are given. Whether binding was seen depends on the method and setting.

Amino acid sequences for entries named in this document (tags omitted). Residues count along the entry.
UniProt P38023, 319-399: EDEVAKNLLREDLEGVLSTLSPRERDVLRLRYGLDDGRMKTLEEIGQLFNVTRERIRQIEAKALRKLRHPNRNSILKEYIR

B1: T25-NtcA (protein, UniProt P29283 1-222)
chain: MLANENSLLTMFRELGSGKLPLQIEQFERGKTIFFPGDPAERVYLLVKGAVKLSRVYESGEEITVALLRENSVFGVLSLLTGQRSDRFYHAVAFTPVQLFSVPIEFMQKALIERPELANVMLQGLSSRILQTEMMIETLAHRDMGSRLVSFLLILCRDFGIPSPDGITIDLKLSHQAIAEAIGSTRVTVTRLLGDLRESKLIAIHKKRITVFNPVALSQQFS
B2: T18-NtcA (protein, UniProt P29283 1-222)
chain: B1 chain

Legend:
Test in all cases: two-hybrid
[1] = biological target: σ^319-399-T18 (UniProt P38023)
[2] = biological target: T18-σ^319-399 (UniProt P38023)
[3] = biological target: T25-σ^319-399 (UniProt P38023)
[4] = biological target: σ^319-399-T25 (UniProt P38023)

| Binder | binding [1] | binding [2] | binding [3] | binding [4] |
| --- | --- | --- | --- | --- |
| B1 | no binding | no binding |  |  |
| B2 |  |  | no binding | no binding |
